From paper PMC5735797
No constants are given. Whether binding was seen depends on the method and setting. In cells and extracts the contact can be indirect. Some results given as binding are weak or reduced against the parent protein; the word gives no strength. Where a sequence is shown, tags or fusion partners need not be part of it.

Sequences of proteins named here, by UniProt entry; tags and fusion partners are left off.
UniProt Q13951: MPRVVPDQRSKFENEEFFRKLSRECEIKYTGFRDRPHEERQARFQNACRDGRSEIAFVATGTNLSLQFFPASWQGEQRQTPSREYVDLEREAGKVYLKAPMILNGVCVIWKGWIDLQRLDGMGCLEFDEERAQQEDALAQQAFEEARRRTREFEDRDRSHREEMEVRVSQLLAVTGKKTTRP
UniProt Q93034: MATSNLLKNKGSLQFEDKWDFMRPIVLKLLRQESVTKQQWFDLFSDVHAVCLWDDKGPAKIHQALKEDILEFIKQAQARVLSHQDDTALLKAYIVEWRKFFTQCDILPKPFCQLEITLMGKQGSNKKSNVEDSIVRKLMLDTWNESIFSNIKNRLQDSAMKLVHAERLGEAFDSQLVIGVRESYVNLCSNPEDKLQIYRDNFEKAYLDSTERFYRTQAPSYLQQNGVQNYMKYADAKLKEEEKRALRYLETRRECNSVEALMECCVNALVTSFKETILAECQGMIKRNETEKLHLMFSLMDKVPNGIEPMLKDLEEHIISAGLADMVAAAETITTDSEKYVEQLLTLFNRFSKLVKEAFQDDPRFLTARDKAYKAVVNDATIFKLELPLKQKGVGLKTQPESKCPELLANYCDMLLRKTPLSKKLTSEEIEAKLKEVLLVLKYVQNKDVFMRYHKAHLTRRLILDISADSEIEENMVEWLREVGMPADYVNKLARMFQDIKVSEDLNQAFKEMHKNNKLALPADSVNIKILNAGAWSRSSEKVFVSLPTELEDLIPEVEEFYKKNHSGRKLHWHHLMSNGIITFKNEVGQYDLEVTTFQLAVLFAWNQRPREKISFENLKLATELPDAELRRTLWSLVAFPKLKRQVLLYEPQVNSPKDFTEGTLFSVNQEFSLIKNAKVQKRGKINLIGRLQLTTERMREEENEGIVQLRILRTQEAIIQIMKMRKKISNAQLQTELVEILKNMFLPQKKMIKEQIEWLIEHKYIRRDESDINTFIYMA
UniProt Q15370: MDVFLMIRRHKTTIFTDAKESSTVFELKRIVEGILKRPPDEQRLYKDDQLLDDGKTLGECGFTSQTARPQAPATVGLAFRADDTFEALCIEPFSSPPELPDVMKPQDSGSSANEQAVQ

Experiments:
[1] = biological target: T1, MOV10 with HA tag (pcDNA3.1-MOV10-HA) (UniProt Q9HCE1); test: co-IP; lysates of transfected 293T cells (150 mM NaCl, 50 mM Tris-HCl pH 7.5, 1 mM EDTA, 1% Triton X-100, 0.5% NP-40) on anti-HA agarose beads, 4 h at 4 °C, four washes, western blotting; in some panels cells treated with MG132 (4 μM, 16 h) or co-transfected with siRNAs against ElonginB, ElonginC or Cullin 5
T1 sequence: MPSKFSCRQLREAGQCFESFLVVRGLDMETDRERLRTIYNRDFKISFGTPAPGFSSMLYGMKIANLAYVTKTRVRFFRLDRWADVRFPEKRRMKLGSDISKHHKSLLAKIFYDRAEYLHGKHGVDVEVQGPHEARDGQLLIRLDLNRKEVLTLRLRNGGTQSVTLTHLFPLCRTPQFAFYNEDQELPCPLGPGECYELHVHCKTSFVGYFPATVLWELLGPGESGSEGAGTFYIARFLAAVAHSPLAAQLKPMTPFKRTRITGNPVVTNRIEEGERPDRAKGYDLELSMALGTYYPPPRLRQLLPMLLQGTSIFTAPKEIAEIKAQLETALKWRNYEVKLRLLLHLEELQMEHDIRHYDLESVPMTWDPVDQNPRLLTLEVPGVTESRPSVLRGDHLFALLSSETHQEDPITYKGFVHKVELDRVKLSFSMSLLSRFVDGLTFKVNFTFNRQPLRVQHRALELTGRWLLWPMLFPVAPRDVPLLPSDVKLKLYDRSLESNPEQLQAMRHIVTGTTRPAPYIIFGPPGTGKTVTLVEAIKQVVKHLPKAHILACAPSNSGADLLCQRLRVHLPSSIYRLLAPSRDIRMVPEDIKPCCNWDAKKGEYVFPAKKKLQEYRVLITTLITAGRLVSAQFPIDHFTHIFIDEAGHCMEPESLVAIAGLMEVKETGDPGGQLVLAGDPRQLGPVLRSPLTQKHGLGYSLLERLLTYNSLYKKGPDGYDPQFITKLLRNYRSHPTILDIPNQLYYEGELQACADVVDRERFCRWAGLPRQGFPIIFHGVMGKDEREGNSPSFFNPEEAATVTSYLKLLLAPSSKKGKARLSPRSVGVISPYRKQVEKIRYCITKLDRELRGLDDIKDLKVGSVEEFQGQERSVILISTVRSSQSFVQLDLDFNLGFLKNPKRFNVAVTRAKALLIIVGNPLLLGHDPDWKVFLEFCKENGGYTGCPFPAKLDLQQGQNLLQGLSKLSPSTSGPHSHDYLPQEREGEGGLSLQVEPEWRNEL

[2] = biological target: T1, MOV10 with HA tag (pcDNA3.1-MOV10-HA); test: co-IP; as a1, but the anti-HA beads were treated with RNase mixture (20 μg/ml) at 37 °C for 30 min; cells co-transfected with siRNAs against the other two of ElonginB, ElonginC, Cullin 5

| Substance | binding [1] | binding [2] |
| --- | --- | --- |
| CBF-β with FLAG tag (pcDNA3.1-CBF-β-FLAG) (from UniProt Q13951 1-182) | no binding | – |
| Cullin 5 with FLAG tag (pcDNA3.1-Cullin 5-FLAG) (from UniProt Q93034 1-780) | binds | binds |
| ElonginB with FLAG tag (pcDNA3.1-ElonginB-FLAG) (from UniProt Q15370 1-118) | no binding | – |
| endogenous Cullin 5 (from UniProt Q93034 1-780) | binds | – |
